In PubChem BioAssay AID248 (DTP/NCI, 2004):
The list does not hold the whole screen: it is rich in T/C values a quarter to a half above the control, in often repeated tests (any T/C) and in doses without a T/C. Other doses and runs of a compound stand elsewhere. T/C: endpoint of the treated group in % of that of the vehicle group. Some entries give survivors of the animals treated and no T/C: the source holds a T/C of zero for them, seemingly a mark for toxic or unscored doses. Some doses without a T/C left all or most animals alive at the check, yet need not have been tolerated: the source hardly ever lists a survival T/C far under the control, and the zero likely stands for such cases as well. Survivors were counted at the toxicity check, usually on the fifth day, unless a day is given; later deaths do not show. Schedule codes are those of the source, read here as Q, the interval in days (D) or hours (H), X, the number of doses. Some doses were run more than once; the values are given in rising order. Where survival is the endpoint, this PubChem deposit counts one and a half times the control or more as active, and values a quarter to a half above the control carry no call in these data; other NCI protocols may use other cut-offs. Some T/C values are followed by the survivors on the day toxicity was checked, most often the fifth; without a count, all were alive then.

Tested on: L1210 leukemia ip in BDF1 mice, survival T/C
Assay: NCI In Vivo Anticancer Drug Screen. Data for tumor model L1210 Leukemia (intraperitoneal) in B6D2F1 (BDF1) mice
Details: T/C endpoint: mean survival time, higher T/C = longer survival
[1] = dose: 25.0 mg/kg/injection, schedule: Q01DX009 (ip), vehicle: saline

**Q.** With `CCCCCCN(CCCCCC)CCCCCC` as the compound, how does the survivor count (dose: 256.0 mg/kg/injection, schedule: Q01DX015 (ip), vehicle: carboxymethylcellulose (CMC)) read?
**A.** Its survivor count is 1 of 6.

**Q.** How did the survivor count (dose: 118.0 mg/kg/injection, schedule: Q01DX001 (ip), vehicle: carboxymethylcellulose (CMC)) turn out when `COc1ccc(C2=C(C)CC3c4cc(OC)c(OC)cc4CCN3C2)cc1OC` (stereo not given) was run?
**A.** The survivor count was 2 of 6.

**Q.** And the survivor count (dose: 177.0 mg/kg/injection, schedule: Q01DX001 (ip), vehicle: carboxymethylcellulose (CMC))?
**A.** Its survivor count is 1 of 6.

**Q.** What about the survivor count (dose: 266.0 mg/kg/injection, schedule: Q01DX001 (ip), vehicle: carboxymethylcellulose (CMC)) of the same compound?
**A.** The survivor count was 0 of 6.

**Q.** What about the survivor count (dose: 400.0 mg/kg/injection, schedule: Q01DX001 (ip), vehicle: carboxymethylcellulose (CMC)) of the same compound?
**A.** Its survivor count is 0 of 6.

**Q.** What about the survivor count (dose: 600.0 mg/kg/injection, schedule: Q01DX001 (ip), vehicle: carboxymethylcellulose (CMC)) of the same compound?
**A.** The survivor count was 0 of 6.

**Q.** `CSc1ccc2c(c1)N(CCCN(C)C)c1ccccc1S2` was tested. Which survivor count (dose: 12.5 mg/kg/injection, schedule: Q04DX003 (ip), vehicle: saline) did it give?
**A.** The survivor count was 0 of 6.

**Q.** What about the survivor count [1] of the same compound?
**A.** The survivor count was 0 of 6.

**Q.** What about the survivor count (dose: 50.0 mg/kg/injection, schedule: Q04DX003 (ip), vehicle: saline) of the same compound?
**A.** The survivor count was 5 of 6.

**Q.** And the survivor count (dose: 100.0 mg/kg/injection, schedule: Q04DX003 (ip), vehicle: saline)?
**A.** Its survivor count is 0 of 6.

**Q.** And the survivor count (dose: 200.0 mg/kg/injection, schedule: Q04DX003 (ip), vehicle: saline)?
**A.** The survivor count was 0 of 6.

**Q.** And the survivor count (dose: 400.0 mg/kg/injection, schedule: Q04DX003 (ip), vehicle: saline)?
**A.** Its survivor count is 0 of 6.

**Q.** Which survivor count (dose: 25.0 mg/kg/injection, schedule: Q01DX001 (ip), vehicle: saline with Tween-80) does the source give for `O=[As](O)(CC(O)COc1ccccc1)c1ccccc1` (stereo not given) here?
**A.** Its survivor count is 0 of 6 and 2 of 6.

**Q.** And the survivor count (dose: 50.0 mg/kg/injection, schedule: Q01DX001 (ip), vehicle: saline with Tween-80)?
**A.** The survivor count was 0 of 6.

**Q.** What about the survivor count (dose: 100.0 mg/kg/injection, schedule: Q01DX001 (ip), vehicle: saline with Tween-80) of the same compound?
**A.** The survivor count was 0 of 6.

**Q.** And the survivor count (dose: 200.0 mg/kg/injection, schedule: Q01DX001 (ip), vehicle: saline with Tween-80)?
**A.** Its survivor count is 0 of 6.

**Q.** And the survivor count (dose: 400.0 mg/kg/injection, schedule: Q01DX001 (ip), vehicle: saline with Tween-80)?
**A.** Its survivor count is 0 of 6.

**Q.** What does the source list for `COC1=CC(=O)C=CC1=O`?
**A.** survivor count (dose: 12.0 mg/kg/injection, schedule: Q01DX009 (ip), vehicle: saline): 0 of 6; survivor count [1]: 0 of 6; survivor count (dose: 50.0 mg/kg/injection, schedule: Q01DX009 (ip), vehicle: saline): 0 of 6; survivor count (dose: 100.0 mg/kg/injection, schedule: Q01DX009 (ip), vehicle: saline): 0 of 6; survivor count (dose: 200.0 mg/kg/injection, schedule: Q01DX009 (ip), vehicle: saline): 0 of 6; survivor count (dose: 400.0 mg/kg/injection, schedule: Q01DX009 (ip), vehicle: saline): 0 of 6

**Q.** Which T/C (dose: 0.12 mg/kg/injection, schedule: Q01DX009 (ip), vehicle: saline) does the source give for `CCc1c(CNc2ccc(C(=O)NC(CC(=O)O)C(=O)O)cc2)ccc2nc(N)nc(N)c12` (stereo not given) here?
**A.** The T/C was 137 and 143 % of control.

**Q.** And the T/C (dose: 0.5 mg/kg/injection, schedule: Q01DX009 (ip), vehicle: saline)?
**A.** Its T/C is 141 % of control.

**Q.** And the T/C (dose: 0.8 mg/kg/injection, schedule: Q01DX009 (ip), vehicle: saline)?
**A.** The T/C was 137 % of control.

**Q.** What about the T/C (dose: 1.0 mg/kg/injection, schedule: Q04DX003 (ip), vehicle: saline) of the same compound?
**A.** The T/C was 128 % of control [5 of 6 alive].

**Q.** What about the survivor count (dose: 2.0 mg/kg/injection, schedule: Q01DX009 (ip), vehicle: saline) of the same compound?
**A.** The survivor count was 6 of 6.

**Q.** And the T/C (dose: 2.0 mg/kg/injection, schedule: Q04DX003 (ip), vehicle: saline)?
**A.** Its T/C is 148 % of control.

**Q.** What about the survivor count (dose: 4.0 mg/kg/injection, schedule: Q01DX009 (ip), vehicle: saline) of the same compound?
**A.** Its survivor count is 6 of 6.

**Q.** And the survivor count (dose: 8.0 mg/kg/injection, schedule: Q01DX009 (ip), vehicle: saline)?
**A.** The survivor count was 5 of 6.

**Q.** And the survivor count (dose: 16.0 mg/kg/injection, schedule: Q01DX009 (ip), vehicle: saline)?
**A.** Its survivor count is 2 of 6.

**Q.** What does the source list for `Clc1ccc(CI)cc1`?
**A.** survivor count (dose: 100.0 mg/kg/injection, schedule: Q04DX003 (ip), vehicle: alcohol): 6 of 6; survivor count (dose: 200.0 mg/kg/injection, schedule: Q04DX003 (ip), vehicle: alcohol): 5 of 6; survivor count (dose: 400.0 mg/kg/injection, schedule: Q04DX003 (ip), vehicle: alcohol): 2 of 6

**Q.** For `C/C(=C\c1ccccc1)C(=O)c1ccccc1`, which survivor count (dose: 25.0 mg/kg/injection, schedule: Q01DX009 (ip), vehicle: water) is on record?
**A.** The survivor count was 6 of 6.

**Q.** And the survivor count (dose: 50.0 mg/kg/injection, schedule: Q01DX009 (ip), vehicle: water)?
**A.** Its survivor count is 6 of 6.

**Q.** And the survivor count (dose: 100.0 mg/kg/injection, schedule: Q01DX009 (ip), vehicle: water)?
**A.** Its survivor count is 6 of 6.

**Q.** And the survivor count (dose: 200.0 mg/kg/injection, schedule: Q01DX009 (ip), vehicle: water)?
**A.** The survivor count was 6 of 6.

**Q.** And the survivor count (dose: 400.0 mg/kg/injection, schedule: Q01DX009 (ip), vehicle: water)?
**A.** The survivor count was 3 of 6 and 5 of 6.
